This assay has as its target FLAG-NBS1 WT (UniProt O60934). Kind of assay: co-IP; GFP-tagged Peli1 and Flag-tagged NBS1 constructs cotransfected, followed by co-immunoprecipitation (Supplementary Fig. 7); cells and precipitating antibody not told in the text shown.

The chains behind the UniProt entries cited, without tags or fusion partners.
UniProt O60934: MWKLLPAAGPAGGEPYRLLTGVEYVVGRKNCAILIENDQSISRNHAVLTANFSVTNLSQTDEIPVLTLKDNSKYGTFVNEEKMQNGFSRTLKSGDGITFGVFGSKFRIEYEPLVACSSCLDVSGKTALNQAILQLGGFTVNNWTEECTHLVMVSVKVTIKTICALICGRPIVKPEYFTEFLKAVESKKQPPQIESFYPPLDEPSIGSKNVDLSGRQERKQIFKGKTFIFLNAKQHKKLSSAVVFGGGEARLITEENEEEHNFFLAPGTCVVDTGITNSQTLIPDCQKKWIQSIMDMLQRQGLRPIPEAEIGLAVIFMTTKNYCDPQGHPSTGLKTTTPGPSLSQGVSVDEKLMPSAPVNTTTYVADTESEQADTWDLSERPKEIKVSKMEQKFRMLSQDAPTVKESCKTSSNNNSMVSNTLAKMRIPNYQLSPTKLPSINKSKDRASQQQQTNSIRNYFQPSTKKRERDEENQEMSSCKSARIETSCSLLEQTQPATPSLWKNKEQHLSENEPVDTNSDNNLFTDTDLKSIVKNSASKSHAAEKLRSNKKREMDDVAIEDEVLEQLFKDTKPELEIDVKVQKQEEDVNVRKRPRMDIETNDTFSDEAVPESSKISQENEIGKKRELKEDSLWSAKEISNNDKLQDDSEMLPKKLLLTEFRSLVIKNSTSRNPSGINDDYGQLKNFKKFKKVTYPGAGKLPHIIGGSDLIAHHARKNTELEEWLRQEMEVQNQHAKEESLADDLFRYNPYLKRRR

Results are given in words; binding and its absence hold for the method and conditions named. Binding seen in cells or lysates may run through a third protein. Some results given as binding are weak or reduced against the parent protein; the word gives no strength. Sequences can lack the tags named with a protein.

B1: GFP-Peli1 ΔC (domain or fragment, UniProt Q96FA3 1-280)
chain: MFSPDQENHPSKAPVKYGELIVLGYNGSLPNGDRGRRKSRFALFKRPKANGVKPSTVHIACTPQAAKAISNKDQHSISYTLSRAQTVVVEYTHDSNTDMFQIGRSTESPIDFVVTDTVPGSQSNSDTQSVQSTISRFACRIICERNPPFTARIYAAGFDSSKNIFLGEKAAKWKTSDGQMDGLTTNGVLVMHPRNGFTEDSKPGIWREISVCGNVFSLRETRSAQQRGKMVEIETNQLQDGSLIDLCGATLLWRTAEGLSHTPTVKHLEALRQEINAARP
Consider B1, for which the binding result was “binds”.

(Values after publication PMC6450972.)
